pKi: −log10 of the molar value.
Target: D(2) dopamine receptor (Rattus norvegicus, UniProt P61169)

The chains behind the UniProt entries cited, without tags or fusion partners.
UniProt P61169, whole entry: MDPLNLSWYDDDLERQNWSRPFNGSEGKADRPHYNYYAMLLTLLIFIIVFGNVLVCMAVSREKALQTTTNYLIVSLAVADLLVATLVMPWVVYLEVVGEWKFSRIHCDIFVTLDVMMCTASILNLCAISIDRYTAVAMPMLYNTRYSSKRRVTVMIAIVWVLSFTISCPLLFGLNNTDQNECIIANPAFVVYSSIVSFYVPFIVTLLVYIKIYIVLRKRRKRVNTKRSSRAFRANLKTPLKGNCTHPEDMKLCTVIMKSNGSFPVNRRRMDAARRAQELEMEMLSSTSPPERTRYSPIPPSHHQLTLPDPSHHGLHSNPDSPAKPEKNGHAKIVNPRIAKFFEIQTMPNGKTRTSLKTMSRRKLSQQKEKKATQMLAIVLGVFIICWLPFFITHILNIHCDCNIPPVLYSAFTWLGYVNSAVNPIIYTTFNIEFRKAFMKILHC

With CC(C)NCC(O)COc1cccc2ccccc12 (stereo unspecified) [PROPRANOLOL] the pKi was 4.89.

— ChEMBL document CHEMBL1124222 (J Med Chem, 1988)
